{"source": "paper PMC9574505", "binders": {"B1": {"name": "loop domain of AtFtsH12 (amino acid residues 175-432) (domain or fragment, UniProt Q9SAJ3 175-432)", "chain": "QAPRVERERRELTESFMEALIPEPSPGNIEKFKRNMWRKATPKGLKLKRFIEAPDGTLVHDSSYVGENAWDDDLETTEGSLKKIIGRNARIQTEAKKKLSQDLGVSGEIGDSVGNWRERLATWKEMLEREKLSEQLNSSAAKYVVEFDMKEVEKSLREDVIGRTSETEGTRALWISKRWWRYRPKLPYTYFLQKLDSSEVAAVVFTEDLKRLYVTMKEGFPLEYIVDIPLDPYLFETICNAGVEVDLLQKRQIHYFMK"}}, "biological_target": "N-terminus of LhcB2 precursor protein (amino acid residues 1-117) (Arabidopsis thaliana)", "assay": "two-hybrid; Matchmaker Gold Yeast Two-Hybrid System (Clontech); AtFtsH12 domains in the prey vector pGADT7, LhcB2 N-terminus in the bait vector pGBKT7; double dropout SD (-Leu -Trp), then quadruple dropout SD (-Ade -His -Leu -Trp), with 20 mg/l X-alpha-Gal for high stringency", "note": "Results are given in words; binding and its absence hold for the method and conditions named. Binding can be weak; no strength is given."}
{"binder": "B1", "values": [{"measurement": "binding", "result": "binds"}]}
